Values quoted from earlier work, collected in patent US8709434B2, “Compositions for inhibiting NADPH oxidase activity” (PCB Associates, Inc., priority 2006, dated 2014).
At least one compound was matched to its structure with a doubt left.

Legend:
NADPH oxidase = conditions: cited from earlier work
[1] = rodents; cited from earlier work

SMILES: C=CC1=C(C)/C(=C/c2[nH]c(Cc3[nH]c(/C=C4\NC(=O)C(C)=C4C=C)c(C)c3CCC(=O)O)c(CCC(=O)O)c2C)NC1=O [bilirubin]
- intracellular concentrations at which potent inhibitory activity on NADPH oxidase is observed (NADPH oxidase): nanomolar
- bleomycin-induced pulmonary fibrosis [1]: suppress bleomycin-induced pulmonary fibrosis
